The record followed here is article PMC10598275.

Chains of the proteins cited; added tags and fusions are not shown.
UniProt Q05397: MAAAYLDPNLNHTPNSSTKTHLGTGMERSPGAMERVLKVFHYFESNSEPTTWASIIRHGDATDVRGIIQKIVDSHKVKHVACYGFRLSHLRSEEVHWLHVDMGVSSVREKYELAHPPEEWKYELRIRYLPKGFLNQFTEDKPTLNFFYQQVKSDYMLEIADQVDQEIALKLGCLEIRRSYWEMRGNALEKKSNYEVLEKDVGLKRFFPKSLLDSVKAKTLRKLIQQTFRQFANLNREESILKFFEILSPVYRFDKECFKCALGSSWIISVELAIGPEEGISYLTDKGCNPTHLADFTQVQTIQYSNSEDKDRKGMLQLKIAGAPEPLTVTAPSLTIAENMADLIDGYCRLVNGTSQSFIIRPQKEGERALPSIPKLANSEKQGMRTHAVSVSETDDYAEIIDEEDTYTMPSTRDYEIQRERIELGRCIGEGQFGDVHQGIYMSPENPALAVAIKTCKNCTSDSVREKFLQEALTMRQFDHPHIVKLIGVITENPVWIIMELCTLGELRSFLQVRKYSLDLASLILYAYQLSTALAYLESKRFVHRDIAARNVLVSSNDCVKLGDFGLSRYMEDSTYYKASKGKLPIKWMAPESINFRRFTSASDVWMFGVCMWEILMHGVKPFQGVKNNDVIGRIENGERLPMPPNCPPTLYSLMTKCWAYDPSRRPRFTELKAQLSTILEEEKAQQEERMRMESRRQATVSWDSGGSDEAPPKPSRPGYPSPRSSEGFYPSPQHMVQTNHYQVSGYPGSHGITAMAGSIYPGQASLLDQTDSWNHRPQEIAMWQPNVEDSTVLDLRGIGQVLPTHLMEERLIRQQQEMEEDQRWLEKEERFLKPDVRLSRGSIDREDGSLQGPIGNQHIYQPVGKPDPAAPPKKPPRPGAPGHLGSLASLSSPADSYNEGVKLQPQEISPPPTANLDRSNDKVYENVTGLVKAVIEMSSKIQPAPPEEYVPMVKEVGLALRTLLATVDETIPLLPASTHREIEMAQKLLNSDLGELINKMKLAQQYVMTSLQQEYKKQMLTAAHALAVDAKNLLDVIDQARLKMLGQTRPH

The target in this test is protein tyrosine kinase 2 (PTK2) (human (endogenous in OVCAR3 and A2780)) (UniProt Q05397). As to the kind of experiment: co-IP; lysates of OVCAR3 and A2780 cells transfected with si-NRSN2-AS1 (or control), after MG132 (20 uM) for 6 h; incubated with anti-PTK2 or anti-IgG overnight, then beads 2 h at 4 °C; immunoblot for MG53.

Results are given in words; binding and its absence hold for the method and conditions named. Binding seen in cells or lysates may run through a third protein. Some entries that bind do so weakly or less than the wild type.

B1: mitsugumin 53 (MG53) (protein, UniProt Q6ZMU5 1-477)
chain: MSAAPGLLHQELSCPLCLQLFDAPVTAECGHSFCRACLGRVAGEPAADGTVLCPCCQAPTRPQALSTNLQLARLVEGLAQVPQGHCEEHLDPLSIYCEQDRALVCGVCASLGSHRGHRLLPAAEAHARLKTQLPQQKLQLQEACMRKEKSVAVLEHQLVEVEETVRQFRGAVGEQLGKMRVFLAALEGSLDREAERVRGEAGVALRRELGSLNSYLEQLRQMEKVLEEVADKPQTEFLMKYCLVTSRLQKILAESPPPARLDIQLPIISDDFKFQVWRKMFRALMPALEELTFDPSSAHPSLVVSSSGRRVECSEQKAPPAGEDPRQFDKAVAVVAHQQLSEGEHYWEVDVGDKPRWALGVIAAEAPRRGRLHAVPSQGLWLLGLREGKILEAHVEAKEPRALRSPERRPTRIGLYLSFGDGVLSFYDASDADALVPLFAFHERLPRPVYPFFDVCWHDKGKNAQPLLLVGPEGAEA
As for B1, the binding result is on record as “binds”.
